The target of assay [1] is human AhR fused to Gal4 DNA-binding domain in pGBKT7 (human) (UniProt P35869). In words: two-hybrid; yeast two-hybrid in strain Y187, pGADT7 and pGBKT7 fusions, 1 μM 3MC or 0.1% DMSO for 12 h at 30°C, β-galactosidase read-out (o-nitrophenol-β-D-galactopyranoside); DDB1 or CUL4B co-expressed from pESC in some samples.
Assay [2] concerns the target S37A mutant of β-catenin fused with the GAL4 DNA-binding domain (human) (UniProt P35222). Put plainly: two-hybrid; mammalian two-hybrid in HeLa cells, pBIND (Gal4 DNA-binding domain) and pACT (VP16 activation domain) fusions, pG5Luc reporter, 3MC (1 µM) or DMSO (0.1%) for 16 h.
Assay [3] concerns the target human CUL4B fused to Gal4 DNA-binding domain in pGBKT7 (human) (UniProt Q13620). In words: two-hybrid; yeast two-hybrid in strain Y187, pGADT7 and pGBKT7 fusions, 1 μM 3MC or 0.1% DMSO for 12 h at 30°C, β-galactosidase read-out (o-nitrophenol-β-D-galactopyranoside); DDB1 or CUL4B co-expressed from pESC in some samples.

By UniProt entry, the sequences of proteins in these tests, tags left out. Where a name states a change or a piece, a line headed by the entry shows the natural chain unless it says otherwise.
UniProt P35222: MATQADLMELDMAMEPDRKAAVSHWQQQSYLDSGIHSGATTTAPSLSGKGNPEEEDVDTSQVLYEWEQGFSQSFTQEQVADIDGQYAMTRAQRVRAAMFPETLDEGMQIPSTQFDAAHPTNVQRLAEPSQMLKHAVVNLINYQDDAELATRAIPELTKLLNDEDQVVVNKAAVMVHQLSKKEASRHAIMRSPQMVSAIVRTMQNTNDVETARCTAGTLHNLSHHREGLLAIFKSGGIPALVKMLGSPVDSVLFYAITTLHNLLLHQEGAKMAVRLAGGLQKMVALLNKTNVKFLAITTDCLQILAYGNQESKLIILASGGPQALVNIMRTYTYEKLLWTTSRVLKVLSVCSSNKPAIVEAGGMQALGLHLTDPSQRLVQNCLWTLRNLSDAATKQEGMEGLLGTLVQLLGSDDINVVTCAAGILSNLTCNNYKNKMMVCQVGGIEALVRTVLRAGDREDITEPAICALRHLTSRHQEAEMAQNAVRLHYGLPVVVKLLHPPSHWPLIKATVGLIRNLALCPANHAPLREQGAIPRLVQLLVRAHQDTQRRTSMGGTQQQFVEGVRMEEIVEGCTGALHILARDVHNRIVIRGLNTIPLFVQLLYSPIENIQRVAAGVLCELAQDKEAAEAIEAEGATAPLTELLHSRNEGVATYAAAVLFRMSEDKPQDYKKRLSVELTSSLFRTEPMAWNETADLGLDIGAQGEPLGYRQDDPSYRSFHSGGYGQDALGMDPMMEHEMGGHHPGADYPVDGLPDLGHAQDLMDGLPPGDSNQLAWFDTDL
UniProt Q13620: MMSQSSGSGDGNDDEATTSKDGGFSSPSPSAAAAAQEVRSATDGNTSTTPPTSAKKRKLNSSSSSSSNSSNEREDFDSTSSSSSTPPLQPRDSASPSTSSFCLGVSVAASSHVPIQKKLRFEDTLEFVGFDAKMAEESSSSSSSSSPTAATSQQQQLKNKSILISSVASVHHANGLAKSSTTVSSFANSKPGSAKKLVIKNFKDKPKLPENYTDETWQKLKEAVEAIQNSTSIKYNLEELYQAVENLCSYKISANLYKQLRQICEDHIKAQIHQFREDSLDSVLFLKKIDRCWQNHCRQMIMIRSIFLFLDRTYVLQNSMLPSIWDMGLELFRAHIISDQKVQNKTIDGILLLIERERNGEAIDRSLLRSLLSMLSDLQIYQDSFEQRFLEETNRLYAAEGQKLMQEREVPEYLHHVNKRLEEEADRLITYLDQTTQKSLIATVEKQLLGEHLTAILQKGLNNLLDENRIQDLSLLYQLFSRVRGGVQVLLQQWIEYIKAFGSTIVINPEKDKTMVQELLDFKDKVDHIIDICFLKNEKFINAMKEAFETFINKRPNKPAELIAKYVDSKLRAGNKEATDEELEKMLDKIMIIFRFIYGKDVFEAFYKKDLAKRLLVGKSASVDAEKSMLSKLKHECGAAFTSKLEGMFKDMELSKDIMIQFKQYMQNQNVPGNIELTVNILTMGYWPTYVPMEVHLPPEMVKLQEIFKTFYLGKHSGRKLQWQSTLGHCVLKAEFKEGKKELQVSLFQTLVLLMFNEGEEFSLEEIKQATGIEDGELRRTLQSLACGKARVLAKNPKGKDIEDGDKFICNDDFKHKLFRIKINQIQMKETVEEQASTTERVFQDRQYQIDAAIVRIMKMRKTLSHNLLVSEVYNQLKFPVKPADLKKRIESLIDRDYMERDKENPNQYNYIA
UniProt P27540: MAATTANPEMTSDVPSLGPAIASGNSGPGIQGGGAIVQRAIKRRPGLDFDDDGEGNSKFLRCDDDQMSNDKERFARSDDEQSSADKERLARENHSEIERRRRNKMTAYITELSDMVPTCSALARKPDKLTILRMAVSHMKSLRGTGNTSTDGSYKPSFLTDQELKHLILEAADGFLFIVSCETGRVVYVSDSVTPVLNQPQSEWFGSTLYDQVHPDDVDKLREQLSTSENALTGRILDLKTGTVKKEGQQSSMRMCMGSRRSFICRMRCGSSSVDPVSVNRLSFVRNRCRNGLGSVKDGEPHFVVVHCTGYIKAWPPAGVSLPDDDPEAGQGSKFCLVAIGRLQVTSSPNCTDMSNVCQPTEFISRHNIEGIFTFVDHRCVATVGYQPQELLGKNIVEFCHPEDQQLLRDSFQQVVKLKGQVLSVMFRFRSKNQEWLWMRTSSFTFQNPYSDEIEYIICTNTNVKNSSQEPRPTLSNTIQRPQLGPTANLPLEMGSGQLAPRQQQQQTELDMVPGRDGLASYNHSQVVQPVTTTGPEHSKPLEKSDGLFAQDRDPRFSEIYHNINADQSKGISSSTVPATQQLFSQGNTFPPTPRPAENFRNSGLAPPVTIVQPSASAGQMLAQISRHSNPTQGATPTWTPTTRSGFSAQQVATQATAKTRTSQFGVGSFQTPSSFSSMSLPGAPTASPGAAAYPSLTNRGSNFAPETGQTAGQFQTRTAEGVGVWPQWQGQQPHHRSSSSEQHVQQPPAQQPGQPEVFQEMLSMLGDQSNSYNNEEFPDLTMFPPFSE

Results are given in words; binding and its absence hold for the method and conditions named. Some results given as binding are weak or reduced against the parent protein; the word gives no strength.

As to “CUL4B fused with the Gal4 activating domain (from UniProt Q13620 1-913)”, the binding entry in assay [1] was “no binding”.

As to “human Arnt fused to Gal4 activating domain in pGADT7 (from UniProt P27540 1-789)”, the binding result in assay [1] is given as “binds”.

Turning to “human CUL4B fused to VP16 activation domain in pACT vector (from UniProt Q13620 1-913)”, the binding entry in assay [2] is “no binding”.

“human β-catenin fused to Gal4 activating domain in pGADT7 (from UniProt P35222 1-781)”: in assay [1], the binding result is “no binding”.

B1: human AhR fused to Gal4 activating domain in pGADT7 (natural protein, UniProt P35869 1-848, looked up)
chain: MNSSSANITYASRKRRKPVQKTVKPIPAEGIKSNPSKRHRDRLNTELDRLASLLPFPQDVINKLDKLSVLRLSVSYLRAKSFFDVALKSSPTERNGGQDNCRAANFREGLNLQEGEFLLQALNGFVLVVTTDALVFYASSTIQDYLGFQQSDVIHQSVYELIHTEDRAEFQRQLHWALNPSQCTESGQGIEEATGLPQTVVCYNPDQIPPENSPLMERCFICRLRCLLDNSSGFLAMNFQGKLKYLHGQKKKGKDGSILPPQLALFAIATPLQPPSILEIRTKNFIFRTKHKLDFTPIGCDAKGRIVLGYTEAELCTRGSGYQFIHAADMLYCAESHIRMIKTGESGMIVFRLLTKNNRWTWVQSNARLLYKNGRPDYIIVTQRPLTDEEGTEHLRKRNTKLPFMFTTGEAVLYEATNPFPAIMDPLPLRTKNGTSGKDSATTSTLSKDSLNPSSLLAAMMQQDESIYLYPASSTSSTAPFENNFFNESMNECRNWQDNTAPMGNDTILKHEQIDQPQDVNSFAGGHPGLFQDSKNSDLYSIMKNLGIDFEDIRHMQNEKFFRNDFSGEVDFRDIDLTDEILTYVQDSLSKSPFIPSDYQQQQSLALNSSCMVQEHLHLEQQQQHHQKQVVVEPQQQLCQKMKHMQVNGMFENWNSNQFVPFNCPQQDPQQYNVFTDLHGISQEFPYKSEMDSMPYTQNFISCNQPVLPQHSKCTELDYPMGSFEPSPYPTTSSLEDFVTCLQLPENQKHGLNPQSAIITPQTCYAGAVSMYQCQPEPQHTHVGQMQYNPVLPGQQAFLNKFQNGVLNETYPAELNNINNTQTTTHLQPLHHPSEARPFPDLTSSGFL
notes: aryl-hydrocarbon receptor (AhR), human cDNA; also called pGAD-AhR; aryl-hydrocarbon receptor; source: yeast two-hybrid fusion, yeast strain Y187
Turning to B1, in assay [3], the binding result is “no binding”.

Values taken from article PMC6824560, “Insight into the relationship between aryl-hydrocarbon receptor and β-catenin in human colon cancer cells” (PLoS ONE, 2019).
